# Data published in US6365128B1, “Monitoring gastrointestinal function to guide care of high risk patients” (Medical Defence Technologies, LLC, priority 1998, dated 2002).
# For at least one compound, name, drawing or mass did not settle the structure.
# How the values were obtained:
# gastric acid secretion = conditions: subcutaneous injection, cited from earlier work
# gastric juice pH = assay: Gastric stimulation (pharmacological challenge) test: gastric juice pH response in a critically ill patient; format: in vivo; conditions: 6 micrograms/kg subcutaneously
smiles,measurement,setting,value
"CSCC[C@H](NC(=O)[C@H](Cc1c[nH]c2ccccc12)NC(=O)CCNC(=O)OC(C)(C)C)C(=O)N[C@@H](CC(=O)O)C(=O)N[C@@H](Cc1ccccc1)C(N)=O [Pentagastrin, pentagastrin]",time to stimulation of gastric acid secretion after injection,gastric acid secretion,approximately 10 minutes
same,time of peak response after administration,gastric acid secretion; in most cases,20 to 30 min
same,duration of activity,gastric acid secretion; usually,60 to 80 min
same,gastric juice pH 20 minutes after administration,"gastric juice pH; patient, severe pneumonia, day 3, baseline pH 5.4",no change
same,gastric juice pH 20 minutes after administration,"gastric juice pH; same patient, day 4, baseline pH 6.2",no change
same,gastric juice pH 20 minutes after administration,"gastric juice pH; same patient, day 5, after additional intravenous fluids and low dose Dobutamine, baseline pH 5.9",1.8
